Source: PubChem BioAssay AID1259254 (NCATS, 2017)
Shown is an unselected part of about 59,000 reagents. In the full data, about 1,550 (2.6%) were called active. 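G2 share is only a proxy for re-replication; each gene was hit by three separate siRNAs, and active genes were retested.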 The numbers tell different reagents against one gene apart. Further read-outs or replicates are left out here. Reagent sequences are not shown. The record does not give: the amount of reagent.

- Test: 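Gene knock-downs that lead to re-replication, shown by excess G2 DNA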 (primary screen)
- Cell system: human HCT116 colorectal cancer cells
- Knock-down reagent: single siRNA against human genes
- Timing: 3 days
- Detection: 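Imaged Hoechst DNA stain sorts each cell into a cycle phase by DNA amount; per plate, G2 fraction set to 0% for non-targeting and 100% for GMNN siRNA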
- Scale: G2 robust z-score: higher = more G2 cells, more excess DNA replication
- Active means: 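An siRNA counts as active if its G2 robust z-score lies at least 5 MADs above the screen median; here such calls match roughly 38% of GMNN control or more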

The first 3 records, to show the layout:
{"Gene": "ADAM7 (ADAM metallopeptidase domain 7)", "reagent": 1, "G2 robust z-score": -0.286, "Outcome": "inactive"}
{"Gene": "ADAM7 (ADAM metallopeptidase domain 7)", "reagent": 2, "G2 robust z-score": -1.51, "Outcome": "inactive"}
{"Gene": "ADAM7 (ADAM metallopeptidase domain 7)", "reagent": 3, "G2 robust z-score": -0.095, "Outcome": "inactive"}

Main list, from the start:
{"Gene": "ADAM7 (ADAM metallopeptidase domain 7)", "reagent": 1, "G2 robust z-score": -0.286, "Outcome": "inactive"}
{"Gene": "ADAM7 (ADAM metallopeptidase domain 7)", "reagent": 2, "G2 robust z-score": -1.51, "Outcome": "inactive"}
{"Gene": "ADAM7 (ADAM metallopeptidase domain 7)", "reagent": 3, "G2 robust z-score": -0.095, "Outcome": "inactive"}
{"Gene": "DMRTC2 (DMRT like family C2)", "reagent": 1, "G2 robust z-score": -0.0181, "Outcome": "inactive"}
{"Gene": "DMRTC2 (DMRT like family C2)", "reagent": 2, "G2 robust z-score": 0.521, "Outcome": "inactive"}
{"Gene": "DMRTC2 (DMRT like family C2)", "reagent": 3, "G2 robust z-score": 1.51, "Outcome": "inactive"}
{"Gene": "NR2C2AP (nuclear receptor 2C2 associated protein)", "reagent": 1, "G2 robust z-score": -0.342, "Outcome": "inactive"}
{"Gene": "NR2C2AP (nuclear receptor 2C2 associated protein)", "reagent": 2, "G2 robust z-score": 0.0108, "Outcome": "inactive"}
{"Gene": "NR2C2AP (nuclear receptor 2C2 associated protein)", "reagent": 3, "G2 robust z-score": -0.00915, "Outcome": "inactive"}
{"Gene": "SWT1 (SWT1 RNA endoribonuclease homolog)", "reagent": 1, "G2 robust z-score": -1.48, "Outcome": "inactive"}
{"Gene": "SWT1 (SWT1 RNA endoribonuclease homolog)", "reagent": 2, "G2 robust z-score": -0.189, "Outcome": "inactive"}
{"Gene": "SWT1 (SWT1 RNA endoribonuclease homolog)", "reagent": 3, "G2 robust z-score": -0.702, "Outcome": "inactive"}
{"Gene": "NME3 (NME/NM23 nucleoside diphosphate kinase 3)", "reagent": 1, "G2 robust z-score": -1.32, "Outcome": "inactive"}
{"Gene": "NME3 (NME/NM23 nucleoside diphosphate kinase 3)", "reagent": 2, "G2 robust z-score": 1.8, "Outcome": "inactive"}
{"Gene": "NME3 (NME/NM23 nucleoside diphosphate kinase 3)", "reagent": 3, "G2 robust z-score": -0.481, "Outcome": "inactive"}
{"Gene": "CDSN (corneodesmosin)", "reagent": 1, "G2 robust z-score": 1.37, "Outcome": "inactive"}
{"Gene": "CDSN (corneodesmosin)", "reagent": 2, "G2 robust z-score": 0.642, "Outcome": "inactive"}
{"Gene": "CDSN (corneodesmosin)", "reagent": 3, "G2 robust z-score": 3.23, "Outcome": "inactive"}
{"Gene": "ZC3H15 (zinc finger CCCH-type containing 15)", "reagent": 1, "G2 robust z-score": 1.23, "Outcome": "inactive"}
{"Gene": "ZC3H15 (zinc finger CCCH-type containing 15)", "reagent": 2, "G2 robust z-score": 0.519, "Outcome": "inactive"}
{"Gene": "ZC3H15 (zinc finger CCCH-type containing 15)", "reagent": 3, "G2 robust z-score": -0.516, "Outcome": "inactive"}
{"Gene": "CD52 (CD52 molecule)", "reagent": 1, "G2 robust z-score": -0.76, "Outcome": "inactive"}
{"Gene": "CD52 (CD52 molecule)", "reagent": 2, "G2 robust z-score": 0.112, "Outcome": "inactive"}
{"Gene": "CD52 (CD52 molecule)", "reagent": 3, "G2 robust z-score": 0.208, "Outcome": "inactive"}
